# Measured values as given in patent US6300312A, “Antagonists of G-protein-coupled receptor” (Hô ;pital Sainte-Justine, priority 2000, dated 2001).
# Chains of the proteins cited; added tags and fusions are not shown. Lines headed by an entry give the natural chain unless they say otherwise; changes in a name come on top.
# UniProt P43088: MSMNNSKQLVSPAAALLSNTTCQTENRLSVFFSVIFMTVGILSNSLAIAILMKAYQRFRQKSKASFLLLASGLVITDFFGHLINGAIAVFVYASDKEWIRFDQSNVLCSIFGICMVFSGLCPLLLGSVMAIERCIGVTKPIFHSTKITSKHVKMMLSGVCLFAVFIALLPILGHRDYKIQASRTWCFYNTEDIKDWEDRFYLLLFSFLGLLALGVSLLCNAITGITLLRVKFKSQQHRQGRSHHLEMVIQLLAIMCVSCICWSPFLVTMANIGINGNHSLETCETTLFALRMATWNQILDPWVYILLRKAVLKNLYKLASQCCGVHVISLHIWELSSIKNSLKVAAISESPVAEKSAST
# Not every detail of the peptide structures is certain; ends, links or a residue may be inferred. No end group written: not given here.
# Target: T1, FP receptor (Homo sapiens, UniProt P43088)
# T1 construct: introduced transiently into permeabilized A549 cells; endogenous in cells; host or cells: A549 lung carcinoma cells (ATCC CCL185)
# Assay: Phosphoinositide hydrolysis in permeabilized A549 cells loaded with peptides, stimulated with PGF2α
# Assay type: cell-based
# Conditions: peptide at 100 μM in saponin-permeabilized A549 cells; 1 μM PGF2α, 30 min; n=3; FIG. 2A
row,Substance,agonist-induced activation of FP receptor (fold stimulation of phosphoinositide hydrolysis)
1,"CLSEEAKEARRINDEIERQLRRDKRDARRE-NH2 [PCP-3, CLSEEAKEAR RINDEIERQL RRDKRDARRE-NH2]",inhibited
2,"KDTILQLNLKEYNLV-NH2 [PCP-4, KDTILQLNLK EYNLV-NH2]",inhibited
3,"DDDDDD [Asp6, poly aspartic acid, reference compound]",did not is affect
